Source: the supplement of paper PMC10849652
Some of the results follow.

Chains of the proteins cited; added tags and fusions are not shown. Lines headed by an entry give the natural chain unless they say otherwise; changes in a name come on top.
UniProt Q92625: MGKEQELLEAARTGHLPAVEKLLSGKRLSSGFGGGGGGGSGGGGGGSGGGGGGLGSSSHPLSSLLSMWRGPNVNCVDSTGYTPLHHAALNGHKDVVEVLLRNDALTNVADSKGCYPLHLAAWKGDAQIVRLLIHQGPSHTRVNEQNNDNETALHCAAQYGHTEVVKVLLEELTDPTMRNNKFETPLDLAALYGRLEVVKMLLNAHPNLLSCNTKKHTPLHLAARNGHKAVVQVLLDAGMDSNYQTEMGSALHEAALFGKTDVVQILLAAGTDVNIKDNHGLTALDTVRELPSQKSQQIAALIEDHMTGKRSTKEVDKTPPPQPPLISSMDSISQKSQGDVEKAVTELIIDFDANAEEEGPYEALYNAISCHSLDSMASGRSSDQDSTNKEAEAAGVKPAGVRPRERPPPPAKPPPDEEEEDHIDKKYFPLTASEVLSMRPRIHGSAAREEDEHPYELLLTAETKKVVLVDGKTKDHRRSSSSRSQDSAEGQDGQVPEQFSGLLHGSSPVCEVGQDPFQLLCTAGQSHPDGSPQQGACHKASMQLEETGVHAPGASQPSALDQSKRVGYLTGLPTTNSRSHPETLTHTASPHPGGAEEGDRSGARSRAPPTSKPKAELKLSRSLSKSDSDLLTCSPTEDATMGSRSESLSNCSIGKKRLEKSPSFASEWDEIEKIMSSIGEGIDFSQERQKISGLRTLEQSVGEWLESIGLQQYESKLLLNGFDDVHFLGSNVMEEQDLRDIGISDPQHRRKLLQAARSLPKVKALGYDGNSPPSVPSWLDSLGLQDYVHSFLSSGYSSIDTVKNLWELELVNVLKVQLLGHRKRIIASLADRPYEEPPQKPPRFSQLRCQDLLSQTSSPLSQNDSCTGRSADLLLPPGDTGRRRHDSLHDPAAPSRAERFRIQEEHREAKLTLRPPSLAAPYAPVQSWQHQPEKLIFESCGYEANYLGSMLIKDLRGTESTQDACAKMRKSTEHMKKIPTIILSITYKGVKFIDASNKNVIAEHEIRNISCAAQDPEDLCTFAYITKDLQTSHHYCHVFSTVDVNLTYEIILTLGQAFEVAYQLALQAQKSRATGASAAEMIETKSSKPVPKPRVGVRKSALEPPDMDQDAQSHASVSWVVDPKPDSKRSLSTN
UniProt P42331: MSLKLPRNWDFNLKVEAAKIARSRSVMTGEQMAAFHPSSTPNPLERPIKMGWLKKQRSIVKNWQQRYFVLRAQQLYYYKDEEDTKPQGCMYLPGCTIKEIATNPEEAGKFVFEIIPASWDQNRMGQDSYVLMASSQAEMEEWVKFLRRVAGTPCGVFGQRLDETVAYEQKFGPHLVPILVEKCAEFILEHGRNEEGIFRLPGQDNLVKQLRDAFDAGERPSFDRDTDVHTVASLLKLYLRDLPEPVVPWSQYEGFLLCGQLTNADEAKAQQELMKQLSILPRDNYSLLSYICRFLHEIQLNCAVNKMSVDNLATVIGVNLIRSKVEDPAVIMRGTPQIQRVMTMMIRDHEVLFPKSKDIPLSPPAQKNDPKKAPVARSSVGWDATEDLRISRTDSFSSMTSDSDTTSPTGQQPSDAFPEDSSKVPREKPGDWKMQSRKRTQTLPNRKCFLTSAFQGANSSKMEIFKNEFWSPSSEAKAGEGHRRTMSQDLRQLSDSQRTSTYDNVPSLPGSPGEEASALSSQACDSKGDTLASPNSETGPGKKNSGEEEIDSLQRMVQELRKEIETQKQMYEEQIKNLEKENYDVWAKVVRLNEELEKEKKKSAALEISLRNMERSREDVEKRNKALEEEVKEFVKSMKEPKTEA
UniProt P05090: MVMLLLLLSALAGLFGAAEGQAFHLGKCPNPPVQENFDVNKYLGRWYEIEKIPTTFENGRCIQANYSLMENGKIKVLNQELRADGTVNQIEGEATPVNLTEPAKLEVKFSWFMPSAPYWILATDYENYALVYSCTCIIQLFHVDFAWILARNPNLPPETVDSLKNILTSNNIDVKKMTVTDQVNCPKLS
UniProt Q9NRY4: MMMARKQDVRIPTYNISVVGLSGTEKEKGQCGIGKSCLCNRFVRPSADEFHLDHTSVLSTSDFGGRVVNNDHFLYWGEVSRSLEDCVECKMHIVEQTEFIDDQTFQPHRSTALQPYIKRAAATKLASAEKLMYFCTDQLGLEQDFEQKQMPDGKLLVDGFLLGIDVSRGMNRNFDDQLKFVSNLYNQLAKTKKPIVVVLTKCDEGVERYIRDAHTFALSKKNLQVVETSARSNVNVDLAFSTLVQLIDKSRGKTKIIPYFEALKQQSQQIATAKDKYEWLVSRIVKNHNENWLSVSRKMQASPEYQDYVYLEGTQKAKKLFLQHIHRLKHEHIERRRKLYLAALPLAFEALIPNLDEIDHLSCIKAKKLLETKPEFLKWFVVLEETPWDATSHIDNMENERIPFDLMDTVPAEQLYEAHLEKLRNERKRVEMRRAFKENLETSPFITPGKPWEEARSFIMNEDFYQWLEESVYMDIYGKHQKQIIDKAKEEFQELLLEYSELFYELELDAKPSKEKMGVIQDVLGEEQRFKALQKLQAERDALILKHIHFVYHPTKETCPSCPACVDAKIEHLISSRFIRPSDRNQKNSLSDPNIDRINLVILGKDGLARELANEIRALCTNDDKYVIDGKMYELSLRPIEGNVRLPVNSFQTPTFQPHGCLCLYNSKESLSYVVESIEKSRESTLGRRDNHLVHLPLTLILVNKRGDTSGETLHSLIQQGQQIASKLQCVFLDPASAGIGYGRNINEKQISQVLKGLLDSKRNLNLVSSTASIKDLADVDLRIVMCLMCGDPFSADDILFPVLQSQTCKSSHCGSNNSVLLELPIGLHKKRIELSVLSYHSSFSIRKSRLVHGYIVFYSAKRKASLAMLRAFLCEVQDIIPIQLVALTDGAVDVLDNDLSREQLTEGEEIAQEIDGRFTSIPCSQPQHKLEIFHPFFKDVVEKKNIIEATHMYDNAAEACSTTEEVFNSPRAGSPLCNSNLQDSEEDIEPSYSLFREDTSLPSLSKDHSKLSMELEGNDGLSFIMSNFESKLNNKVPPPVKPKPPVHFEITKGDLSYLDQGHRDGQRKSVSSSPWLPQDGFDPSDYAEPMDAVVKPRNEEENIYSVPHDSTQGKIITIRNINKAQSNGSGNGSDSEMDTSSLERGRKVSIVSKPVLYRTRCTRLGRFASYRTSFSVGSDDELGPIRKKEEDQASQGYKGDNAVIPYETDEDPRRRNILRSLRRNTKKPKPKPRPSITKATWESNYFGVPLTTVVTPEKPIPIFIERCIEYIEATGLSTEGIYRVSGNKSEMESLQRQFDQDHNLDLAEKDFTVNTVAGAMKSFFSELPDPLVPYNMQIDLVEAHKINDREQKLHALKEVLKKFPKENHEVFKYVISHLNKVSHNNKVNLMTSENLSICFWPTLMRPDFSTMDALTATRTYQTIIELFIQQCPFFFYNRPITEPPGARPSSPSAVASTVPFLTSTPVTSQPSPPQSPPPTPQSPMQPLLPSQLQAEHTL
UniProt Q10567: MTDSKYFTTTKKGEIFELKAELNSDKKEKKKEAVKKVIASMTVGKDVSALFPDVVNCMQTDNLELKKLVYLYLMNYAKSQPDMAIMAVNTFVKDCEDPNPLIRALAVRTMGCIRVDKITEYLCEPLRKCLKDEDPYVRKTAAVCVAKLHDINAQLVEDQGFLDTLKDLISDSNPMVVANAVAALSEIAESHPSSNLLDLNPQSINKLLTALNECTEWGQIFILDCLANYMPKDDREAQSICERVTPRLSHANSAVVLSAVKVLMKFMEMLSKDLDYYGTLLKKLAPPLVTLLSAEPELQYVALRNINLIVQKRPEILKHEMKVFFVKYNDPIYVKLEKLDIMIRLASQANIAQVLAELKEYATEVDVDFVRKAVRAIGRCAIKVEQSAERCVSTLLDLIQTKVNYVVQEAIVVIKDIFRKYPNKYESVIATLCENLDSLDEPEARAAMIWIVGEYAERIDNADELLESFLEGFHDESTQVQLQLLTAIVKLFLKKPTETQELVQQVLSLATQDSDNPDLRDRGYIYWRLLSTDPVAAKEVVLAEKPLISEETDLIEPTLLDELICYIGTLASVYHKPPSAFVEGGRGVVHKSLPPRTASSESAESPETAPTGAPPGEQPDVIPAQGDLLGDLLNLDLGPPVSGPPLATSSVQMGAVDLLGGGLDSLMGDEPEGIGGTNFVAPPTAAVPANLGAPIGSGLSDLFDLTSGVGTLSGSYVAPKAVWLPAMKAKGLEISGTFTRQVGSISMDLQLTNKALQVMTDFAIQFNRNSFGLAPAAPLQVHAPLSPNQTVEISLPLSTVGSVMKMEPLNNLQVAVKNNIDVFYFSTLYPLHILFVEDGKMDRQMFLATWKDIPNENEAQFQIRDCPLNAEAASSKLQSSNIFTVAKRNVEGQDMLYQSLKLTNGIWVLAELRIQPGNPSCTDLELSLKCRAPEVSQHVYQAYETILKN
UniProt Q9HCJ1: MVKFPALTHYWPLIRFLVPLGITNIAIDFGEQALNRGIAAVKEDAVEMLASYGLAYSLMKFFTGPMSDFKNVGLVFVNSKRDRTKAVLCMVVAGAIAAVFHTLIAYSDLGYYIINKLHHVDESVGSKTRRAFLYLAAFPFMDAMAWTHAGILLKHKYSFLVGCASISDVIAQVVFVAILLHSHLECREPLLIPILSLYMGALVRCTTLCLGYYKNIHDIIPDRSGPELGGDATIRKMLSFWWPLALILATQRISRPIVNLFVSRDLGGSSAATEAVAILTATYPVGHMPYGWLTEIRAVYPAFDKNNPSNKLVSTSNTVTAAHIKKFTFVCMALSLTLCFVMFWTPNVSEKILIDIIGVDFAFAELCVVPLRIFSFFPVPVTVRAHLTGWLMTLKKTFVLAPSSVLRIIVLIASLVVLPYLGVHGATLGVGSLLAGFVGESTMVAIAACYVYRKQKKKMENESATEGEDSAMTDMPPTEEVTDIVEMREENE
UniProt O14791: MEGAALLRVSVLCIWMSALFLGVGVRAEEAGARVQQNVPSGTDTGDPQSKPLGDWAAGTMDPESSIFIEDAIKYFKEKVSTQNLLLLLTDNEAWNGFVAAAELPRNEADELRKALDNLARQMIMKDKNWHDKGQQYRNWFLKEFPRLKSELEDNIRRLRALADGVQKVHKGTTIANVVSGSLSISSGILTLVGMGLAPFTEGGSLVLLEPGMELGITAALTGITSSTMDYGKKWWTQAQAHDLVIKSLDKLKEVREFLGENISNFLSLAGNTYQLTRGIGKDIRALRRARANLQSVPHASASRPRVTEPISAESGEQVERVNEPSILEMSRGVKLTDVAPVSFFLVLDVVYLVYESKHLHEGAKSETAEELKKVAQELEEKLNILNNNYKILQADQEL
UniProt Q9BZZ5: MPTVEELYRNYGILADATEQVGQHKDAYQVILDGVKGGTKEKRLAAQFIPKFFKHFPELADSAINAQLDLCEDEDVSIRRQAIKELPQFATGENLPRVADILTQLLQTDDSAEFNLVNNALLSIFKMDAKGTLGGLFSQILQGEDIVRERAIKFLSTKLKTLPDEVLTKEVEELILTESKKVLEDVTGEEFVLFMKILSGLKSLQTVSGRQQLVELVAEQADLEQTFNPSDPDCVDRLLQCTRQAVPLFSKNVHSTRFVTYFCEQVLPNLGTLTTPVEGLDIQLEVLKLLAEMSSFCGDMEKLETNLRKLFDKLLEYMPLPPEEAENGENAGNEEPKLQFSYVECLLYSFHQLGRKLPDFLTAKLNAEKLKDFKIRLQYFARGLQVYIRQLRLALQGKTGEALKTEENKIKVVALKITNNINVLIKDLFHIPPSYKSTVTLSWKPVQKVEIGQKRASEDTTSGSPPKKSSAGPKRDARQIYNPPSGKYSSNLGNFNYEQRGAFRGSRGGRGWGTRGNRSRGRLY
UniProt P15514, whole entry, looked up: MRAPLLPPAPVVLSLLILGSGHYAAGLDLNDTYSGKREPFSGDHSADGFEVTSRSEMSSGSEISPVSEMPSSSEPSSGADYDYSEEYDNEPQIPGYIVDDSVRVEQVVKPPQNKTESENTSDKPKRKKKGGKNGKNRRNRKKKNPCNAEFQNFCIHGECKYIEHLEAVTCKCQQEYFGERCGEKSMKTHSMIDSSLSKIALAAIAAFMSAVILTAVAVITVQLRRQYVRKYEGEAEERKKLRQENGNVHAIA
UniProt P02655: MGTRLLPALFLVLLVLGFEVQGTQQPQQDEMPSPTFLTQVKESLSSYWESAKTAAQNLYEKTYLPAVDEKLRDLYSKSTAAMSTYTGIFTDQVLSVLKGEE
UniProt P53367: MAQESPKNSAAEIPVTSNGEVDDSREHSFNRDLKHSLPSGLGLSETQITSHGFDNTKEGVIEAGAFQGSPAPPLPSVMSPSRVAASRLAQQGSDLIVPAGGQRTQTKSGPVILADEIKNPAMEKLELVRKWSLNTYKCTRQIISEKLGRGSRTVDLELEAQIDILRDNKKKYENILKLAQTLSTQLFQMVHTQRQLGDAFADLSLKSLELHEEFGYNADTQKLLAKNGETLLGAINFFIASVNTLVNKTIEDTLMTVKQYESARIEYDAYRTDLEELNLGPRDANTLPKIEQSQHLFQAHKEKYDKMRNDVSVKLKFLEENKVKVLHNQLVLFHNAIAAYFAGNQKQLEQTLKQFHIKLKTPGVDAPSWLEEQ

The targets below were run with CNCc1ccc(-c2[nH]c3cc(F)cc4c3c2CCNC4=O)cc1 [rucaparib] (assay: log2 fold change, soluble protein after heating vs DMSO (PISA); higher = thermal stabilisation; K562 cells, 10 uM, 30 min; active = over 0.2 and 3.5 SD of the protein, either way, in both replicates (recomputed)).
Procedure, shortened: (§1)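 K562 cells (2×10^6 cells/mL) were treated with 10 μM compound for 30 min, and aliquots were heated for 3 min over 48°C-58°C. Pooled aliquots were extracted in PBS with 0.5% NP-40 at 4°C, and the supernatant after 21,000xg for 90 min was measured by TMTpro 16plex LC-MS/MS with channel sums equalised. Reported thermal stability, relative to control samples and from duplicates, is a log2 fold change.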
In the case of APOBEC3F (UniProt Q8IUX4), the log2 fold change is reported as inactive: 0.133.
In the case of AP4S1 (UniProt Q9Y587), the log2 fold change is reported as inactive: 0.039.
With ANKS1A (UniProt Q92625) the log2 fold change was inactive: 0.449.
For ARHGAP5 (UniProt Q13017), the log2 fold change was inactive: 0.05.
For ANLN (UniProt Q9NQW6), the log2 fold change was inactive: 0.004.
For ARHGAP25 isoform 4 (UniProt P42331), the log2 fold change was inactive: 0.168.
In the case of APOD (UniProt P05090), the log2 fold change is reported as inactive: -0.045.
In the case of ANKFY1 isoform 4 (UniProt Q9P2R3), the log2 fold change is reported as inactive: 0.215.
For APC (UniProt P25054), the log2 fold change was inactive: 0.057.
ANKRD52 (UniProt Q8NB46) was tested, and the log2 fold change was inactive: 0.152.
For ARHGAP35 (UniProt Q9NRY4), the log2 fold change was inactive: 0.118.
With ANKRD13C (UniProt Q8N6S4) the log2 fold change was inactive: 0.158.
With AP1B1 isoform 3 (UniProt Q10567) the log2 fold change was inactive: -0.141.
In the case of APP (UniProt P05067), the log2 fold change is reported as inactive: -0.328.
With ANKH (UniProt Q9HCJ1) the log2 fold change was inactive: -0.32.
For APOL1 isoform 2 (UniProt O14791), the log2 fold change was inactive: -0.298.
With ARHGAP22 isoform 2 (UniProt Q7Z5H3) the log2 fold change was inactive: 0.063.
APAF1 (UniProt O14727) was tested, and the log2 fold change was inactive: 0.103.

The targets below were run with CNc1nc(-c2ccc3c(N)n[nH]c3c2)cc(N2C[C@@H](C(=O)NC3CCCCC3)CC[C@H]2C)n1 in the same assay as above.
Procedure, shortened: as §1
With APOBEC3F (UniProt Q8IUX4) the log2 fold change was inactive: -0.057.
For AP4S1 (UniProt Q9Y587), the log2 fold change was inactive: -0.072.
In the case of AP1G2 (UniProt O75843), the log2 fold change is reported as inactive: 0.164.
For ANLN (UniProt Q9NQW6), the log2 fold change was inactive: -0.101.
With ARHGAP25 isoform 4 (UniProt P42331) the log2 fold change was inactive: 0.131.
With APC (UniProt P25054) the log2 fold change was inactive: 0.373.
In the case of ANKRD52 (UniProt Q8NB46), the log2 fold change is reported as inactive: -0.227.
In the case of ARHGAP35 (UniProt Q9NRY4), the log2 fold change is reported as inactive: -0.038.
With AP1B1 isoform 3 (UniProt Q10567) the log2 fold change was inactive: -0.04.
ANKH (UniProt Q9HCJ1) was tested, and the log2 fold change was inactive: -0.041.
For APPBP2 (UniProt Q92624), the log2 fold change was inactive: 0.374.
For ANXA2 (UniProt H0YMT9), the log2 fold change was inactive: -0.033.
With API5 isoform 1 (UniProt Q9BZZ5) the log2 fold change was inactive: 0.311.
In the case of AREG (UniProt P15514), the log2 fold change is reported as inactive: -0.035.
With APAF1 (UniProt O14727) the log2 fold change was inactive: 0.032.
For APOC2 (UniProt P02655), the log2 fold change was inactive: 0.002.
ARFIP1 isoform 2 (UniProt P53367) was tested, and the log2 fold change was inactive: 0.279.
